Experimental data: PubChem BioAssay AID1159578 (Peter MacCallum Cancer Centre, 2015)
Shown is one part, drawn at random, of about 18,000 reagents. Of all reagents, about 1,030 (5.7%) were called active. 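Inactive calls also include pools with fewer than 3300 nuclei, whose migration was not assessed.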 The raw values are shown without normalisation.

Screen: 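Knock-downs that alter how fast lymphatic endothelial cells migrate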 (primary screen)
Cells: human lymphatic endothelial cells
Knock-down reagent: siRNA pool against human genes, 40 nM
Time to read-out: 48 h after transfection
Read-out: 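High-content imaging of dye-stained cells in a scratch assay measures filled wound area and nuclei per well; duplicate means given as ratio to mock and robust z-score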
Direction: migration robust z-score: higher = faster migration into the scratch; migration relative to mock: higher = more scratch area covered than mock; nuclei per well: higher = more cells in the well
Hit rule: 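Migration changed when robust z exceeds 2 or falls below -2 and mean nuclei number is at least 3300; otherwise not called changed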
Calls: active = migration changed; inactive = no migration change, or too few cells

no.	Gene	PubChem SID	migration robust z-score	migration class with cell-count check	migration relative to mock	nuclei per well, duplicate mean	Outcome
1	IL18R1	SID255353830	0.65	migration z between -2 and 2; enough cells	0.93	6814	inactive
2	COPS8	SID255355446	-0.8	migration z between -2 and 2; enough cells	0.68	5438	inactive
3	MAT1A	SID255350880	0.39	migration z between -2 and 2; enough cells	0.88	5484	inactive
4	THAP6	SID255363546	-0.05	migration z between -2 and 2; enough cells	0.87	6168	inactive
5	KRTAP2-4	SID255361656	-1.58	migration z between -2 and 2; enough cells	0.48	5294	inactive
6	SEMA6D	SID255360636	0.84	migration z between -2 and 2; enough cells	1.1	6438	inactive
7	GABRA2	SID255349789	-0.32	migration z between -2 and 2; enough cells	0.74	5815	inactive
8	NIPBL	SID255356498	0.1	migration z between -2 and 2; enough cells	0.91	5702	inactive
9	ACIN1	SID255355910	0.05	migration z between -2 and 2; enough cells	0.82	5594	inactive
10	F2RL1	SID255349595	-0.49	migration z between -2 and 2; enough cells	0.71	6241	inactive
11	PPP1R16B	SID255356639	1.3	migration z between -2 and 2; enough cells	1.06	4798	inactive
12	SHISAL2A	SID255365249	-0.9	migration z between -2 and 2; enough cells	0.65	4876	inactive
13	OR56B1	SID255365453	0.15	migration z between -2 and 2; enough cells	0.93	4920	inactive
14	IQCH	SID255360010	0.4	migration z between -2 and 2; enough cells	0.99	5848	inactive
15	ANKK1	SID255364489	-0.88	migration z between -2 and 2; enough cells	0.64	5475	inactive
16	CT47A11	SID255364491	-1.08	migration z between -2 and 2; enough cells	0.6	6182	inactive
17	LINC01559	SID255364675	-0.39	migration z between -2 and 2; enough cells	0.78	5480	inactive
18	ADCYAP1	SID255348186	-1.29	migration z between -2 and 2; enough cells	0.55	5430	inactive
19	FUNDC1	SID255363074	0.07	migration z between -2 and 2; enough cells	0.9	5663	inactive
20	SERGEF	SID255356768	-1.05	migration z between -2 and 2; enough cells	0.61	5470	inactive
21	RBM11	SID255357961	-1.04	migration z between -2 and 2; enough cells	0.6	5350	inactive
22	HOXC8	SID255350281	0.74	migration z between -2 and 2; enough cells	1.07	5700	inactive
23	SLX4	SID255361379	-0.86	migration z between -2 and 2; enough cells	0.66	4982	inactive
24	PSTK	SID255362452	0.46	migration z between -2 and 2; enough cells	0.9	4998	inactive
25	KRTAP26-1	SID255365525	-0.15	migration z between -2 and 2; enough cells	0.84	6050	inactive
26	XIAP	SID255348340	0.91	migration z between -2 and 2; enough cells	0.98	6442	inactive
27	PTPRU	SID255354788	-1.79	migration z between -2 and 2; enough cells	0.46	6772	inactive
28	RGL1	SID255356048	-0.47	migration z between -2 and 2; enough cells	0.72	5970	inactive
29	RNF170	SID255360948	1.53	migration z between -2 and 2; enough cells	1.1	6454	inactive
30	EFNA4	SID255349444	-0.64	migration z between -2 and 2; enough cells	0.68	3580	inactive
31	EMC10	SID255364773	0.06	migration z between -2 and 2; enough cells	0.9	6516	inactive
32	FCHSD2	SID255354626	0.1	migration z between -2 and 2; enough cells	0.92	4906	inactive
33	KRTAP17-1	SID255361132	-0.99	migration z between -2 and 2; enough cells	0.62	4938	inactive
34	SCP2D1	SID255363151	-0.02	migration z between -2 and 2; enough cells	0.88	4796	inactive
35	TNF	SID255352910	-1.4	migration z between -2 and 2; enough cells	0.54	3746	inactive
36	NMRAL1	SID255359376	-1.8	migration z between -2 and 2; enough cells	0.42	3944	inactive
37	RASSF7	SID255353375	1.57	migration z between -2 and 2; enough cells	1.29	4728	inactive
38	ZNF395	SID255358939	0.11	migration z between -2 and 2; enough cells	0.92	5802	inactive
39	VARS1	SID255353090	-0.21	migration z between -2 and 2; enough cells	0.76	6688	inactive
40	TM4SF19	SID255362358	-0.72	migration z between -2 and 2; enough cells	0.7	6501	inactive
41	CBLL2	SID255363666	0.83	migration z between -2 and 2; enough cells	0.97	4848	inactive
42	TIMM9	SID255356802	1.38	migration z between -2 and 2; enough cells	1.25	6681	inactive
43	HABP4	SID255355881	0.78	migration z between -2 and 2; enough cells	1.08	6106	inactive
44	GFUS	SID255352989	-2.02	migration z below -2; enough cells	0.42	5604	active
45	DLGAP4	SID255355807	-0.25	migration z between -2 and 2; enough cells	0.82	5816	inactive
46	IPO8	SID255355152	1.17	migration z between -2 and 2; enough cells	1.19	6168	inactive
47	TRIM29	SID255356394	0.99	migration z between -2 and 2; enough cells	1	6636	inactive
48	YJEFN3	SID255365341	0.34	migration z between -2 and 2; enough cells	0.98	6372	inactive
49	ZNF496	SID255361523	-0.84	migration z between -2 and 2; enough cells	0.67	4950	inactive
50	DCAF4L2	SID255363036	0.57	migration z between -2 and 2; enough cells	1.04	6178	inactive
51	HLA-K	SID255366123	-1.71	migration z between -2 and 2; enough cells	0.44	5832	inactive
52	KLK15	SID255358682	-0.13	migration z between -2 and 2; enough cells	0.78	5360	inactive
53	LY6H	SID255350817	0.41	migration z between -2 and 2; enough cells	0.99	6142	inactive
54	DRC12	SID255364641	1.36	migration z between -2 and 2; enough cells	1.23	5054	inactive
55	CTAG1A	SID255364393	0.33	migration z between -2 and 2; enough cells	0.98	4863	inactive
56	WIPF1	SID255353124	-0.04	migration z between -2 and 2; enough cells	0.88	5269	inactive
57	FAM133B	SID255364565	0.68	migration z between -2 and 2; enough cells	1.06	5588	inactive
58	JUND	SID255350580	0.65	migration z between -2 and 2; enough cells	0.93	6296	inactive
59	CD2	SID255348750	0.23	migration z between -2 and 2; enough cells	0.85	6665	inactive
60	CER1	SID255354209	0.29	migration z between -2 and 2; enough cells	0.96	6908	inactive
61	GAGE12I	SID255356848	0.46	migration z between -2 and 2; enough cells	1	4594	inactive
62	PDE2A	SID255351464	0.3	migration z between -2 and 2; enough cells	0.96	6666	inactive
63	CLEC18B	SID255366016	-0.52	migration z between -2 and 2; enough cells	0.75	5652	inactive
64	PSEN1	SID255351864	-0.94	migration z between -2 and 2; enough cells	0.62	5156	inactive
65	TPGS1	SID255361972	-0.35	migration z between -2 and 2; enough cells	0.8	5393	inactive
66	OR8U9	SID255366027	-1.88	migration z between -2 and 2; enough cells	0.4	4828	inactive
67	ASL	SID255348423	0.76	migration z between -2 and 2; enough cells	0.95	5788	inactive
68	ABHD5	SID255357474	0.42	migration z between -2 and 2; enough cells	0.88	5400	inactive
69	MMP7	SID255350994	0	migration z between -2 and 2; enough cells	0.8	5566	inactive
70	ESR2	SID255349560	0.11	migration z between -2 and 2; enough cells	0.82	6086	inactive
71	APRT	SID255348358	0.46	migration z between -2 and 2; enough cells	0.9	5687	inactive
72	MRPL35	SID255357649	-0.62	migration z between -2 and 2; enough cells	0.73	5062	inactive
73	MPEG1	SID255364224	-0.78	migration z between -2 and 2; enough cells	0.68	5850	inactive

8 entries from above, arranged by “migration relative to mock”, high to low:
Gene	PubChem SID	migration robust z-score	migration class with cell-count check	migration relative to mock	nuclei per well, duplicate mean	Outcome
HOXC8	SID255350281	0.74	migration z between -2 and 2; enough cells	1.07	5700	inactive
XIAP	SID255348340	0.91	migration z between -2 and 2; enough cells	0.98	6442	inactive
PSTK	SID255362452	0.46	migration z between -2 and 2; enough cells	0.9	4998	inactive
KRTAP26-1	SID255365525	-0.15	migration z between -2 and 2; enough cells	0.84	6050	inactive
RGL1	SID255356048	-0.47	migration z between -2 and 2; enough cells	0.72	5970	inactive
SLX4	SID255361379	-0.86	migration z between -2 and 2; enough cells	0.66	4982	inactive
RBM11	SID255357961	-1.04	migration z between -2 and 2; enough cells	0.6	5350	inactive
PTPRU	SID255354788	-1.79	migration z between -2 and 2; enough cells	0.46	6772	inactive
